This is one part of the list. Baselines shift from plate to plate; read single values as rough.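 Hits were defined as a z-score below −3.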

The target of the assay is T1, YTHDF1 YTH domain (aa 365-554) (UniProt Q9BYJ9).
T1 sequence (whole entry): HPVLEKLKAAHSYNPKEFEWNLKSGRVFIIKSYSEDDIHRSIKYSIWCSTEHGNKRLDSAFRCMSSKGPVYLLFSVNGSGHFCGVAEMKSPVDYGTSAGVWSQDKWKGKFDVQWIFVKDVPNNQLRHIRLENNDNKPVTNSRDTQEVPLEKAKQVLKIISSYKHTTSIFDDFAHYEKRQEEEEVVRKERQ
As to the kind of experiment: tryptophan fluorescence intensity z-score (mean); higher = higher fluorescence, less quenching (negative = binding / quenching). As to conditions: 10 µM.
Consider `C[N+]1(C)CCCC(OC(=O)C(O)(c2ccccc2)c2ccccc2)C1` (configuration not stated) (plate: M 3-4), for which the “tryptophan fluorescence intensity z-score” value is inactive: 0.0766.

Turning to `CN1C2CCC1CC(O)C2` (configuration not stated) (plate: M 23-24), the “tryptophan fluorescence intensity z-score” value is inactive: 0.589.

As to `CC(=O)O[C@@H]1C[C@H]2C(C)(C)C(=O)C=C[C@]2(C)[C@H]2CC[C@]3(C)C(=CC(=O)O[C@H]3c3ccoc3)[C@@]21C` (plate: M 13-14), the “tryptophan fluorescence intensity z-score” value was inactive: 0.157.

For `N[C@@H]1C[C@H]1c1ccccc1.N[C@H]1C[C@@H]1c1ccccc1` (plate: M 5-6), the “tryptophan fluorescence intensity z-score” value was inactive: -0.0224.

For `CC1(C)C(=O)C=C[C@@]2(C)C1=C(O)C(=O)[C@]1(C)[C@@H]2CC[C@@]2(C)[C@H](c3ccoc3)C[C@H]3O[C@]321` (plate: M 13-14), the “tryptophan fluorescence intensity z-score” value is inactive: 0.722.

Regarding `C[C@H]1CC[C@]2(NC1)O[C@H]1C[C@H]3[C@@H]4CC[C@H]5C[C@@H](O[C@@H]6O[C@H](CO)[C@H](O[C@@H]7O[C@H](CO)[C@@H](O)[C@H](O[C@@H]8OC[C@@H](O)[C@H](O)[C@H]8O)[C@H]7O[C@@H]7O[C@H](CO)[C@@H](O)[C@H](O)[C@H]7O)[C@H](O)[C@H]6O)CC[C@]5(C)[C@H]4CC[C@]3(C)[C@H]1[C@@H]2C` (plate: M 23-24), the “tryptophan fluorescence intensity z-score” value is inactive: 0.073.

For `Cc1c(O)c(O)cc2c1CC=C1[C@@]2(C)CC[C@@]2(C)[C@@H]3C[C@](C)(C(=O)O)CC[C@]3(C)CC[C@]12C` (plate: M 19-20), the “tryptophan fluorescence intensity z-score” value was inactive: 0.0656.

Regarding `O=C1CCO1` (plate: M 13-14), the “tryptophan fluorescence intensity z-score” value was inactive: 0.656.

As for `CCC(=O)O[C@H]1CC[C@H]2[C@@H]3CCC4=CC(=O)CC[C@]4(C)[C@H]3CC[C@]12C` (plate: M 1-2), the “tryptophan fluorescence intensity z-score” value was inactive: 0.493.

Turning to `C[C@@H]1CC[C@]2(NC1)O[C@H]1C[C@H]3[C@@H]4CC=C5C[C@@H](O)CC[C@]5(C)[C@H]4CC[C@]3(C)[C@H]1[C@@H]2C` (plate: M 13-14), the “tryptophan fluorescence intensity z-score” value is inactive: 0.869.

For `C[C@]12C=CC(=O)C=C1CC[C@@H]1[C@@H]2CC[C@]2(C)C(=O)CC[C@@H]12` (plate: M 21-22), the “tryptophan fluorescence intensity z-score” value was inactive: 0.36.

Take `CCN1C[C@]2(OC(=O)c3ccccc3NC(C)=O)CC[C@H](OC)[C@@]34[C@@H]2C[C@@H]([C@@H]13)[C@@]1(O)C[C@H](OC)[C@H]2C[C@@H]4[C@]1(O)[C@H]2OC` (plate: M 21-22): the “tryptophan fluorescence intensity z-score” value was inactive: 0.223.

As for `CC(=O)CC1CCCCN1` (configuration not stated) (plate: M 17-18), the “tryptophan fluorescence intensity z-score” value was inactive: 0.266.

`CCN1C[C@]2(COC)[C@H](O)C[C@H](OC)[C@@]34[C@@H]5C[C@@]6(O)[C@H](OC(=O)c7ccccc7)[C@@H]5[C@@](OC(C)=O)([C@@H]([C@H](OC)[C@H]23)[C@@H]14)[C@@H](O)[C@@H]6OC` (plate: M 5-6): the “tryptophan fluorescence intensity z-score” value is inactive: 0.28.

`CC[C@@]1(O)C[C@H](O[C@H]2C[C@H](N(C)C)[C@H](O)[C@H](C)O2)c2c(cc3c(c2O)C(=O)c2c(O)ccc(O)c2C3=O)[C@H]1C(=O)OC` (plate: M 15-16): the “tryptophan fluorescence intensity z-score” value is inactive: -0.0942.

Take `O=[N+]([O-])c1cc([As](=O)(O)O)ccc1O` (plate: M 5-6): the “tryptophan fluorescence intensity z-score” value is inactive: 0.216.

For the molecule `CC(=O)C1CCC2C3CCC4C[C@H](O)CCC4(C)C3C[C@H](O)C12C` (stereo partly drawn) [DIHYDROXY(3alpha,12alpha)PREGNAN-20-ONE] (plate: M 15-16), the “tryptophan fluorescence intensity z-score” value was inactive: 0.7.

In the case of `CC(C)CCCC1(C)C=Cc2c(O)c3c(c(CCC(C)C)c2O1)OC12C(CC4CC1C(C)(C)OC2(CCC(C)C(=O)O)C4O)C3=O` (configuration not stated) (plate: M 15-16), the “tryptophan fluorescence intensity z-score” value was inactive: 0.414.

Consider `CCC1(c2ccc(N)cc2)CCC(=O)NC1=O` (configuration not stated) (plate: M 1-2), for which the “tryptophan fluorescence intensity z-score” value was inactive: -0.633.

As for `C[C@@H](N)[C@@H](O)c1ccccc1` (plate: M 21-22), the “tryptophan fluorescence intensity z-score” value is inactive: -0.121.

On to `NCCc1ccc(O)cc1` (plate: M 15-16), for which the “tryptophan fluorescence intensity z-score” value is inactive: 0.701.

Consider `CN(C)C(=O)Oc1cc(OC(=O)N(C)C)cc(C(O)CNC(C)(C)C)c1` (configuration not stated) (plate: M 23-24), for which the “tryptophan fluorescence intensity z-score” value was inactive: 0.226.

For the molecule `CCn1cc(C(=O)O)c(=O)c2cc3c(cc21)OCO3` (plate: M 7-8), the “tryptophan fluorescence intensity z-score” value is inactive: -0.151.

Consider `C[N+]1(C)[C@@H]2C[C@@H](OC(=O)[C@H](CO)c3ccccc3)C[C@H]1[C@@H]1O[C@@H]12` (plate: M 3-4), for which the “tryptophan fluorescence intensity z-score” value was inactive: 0.079.

On to `C[C@]12CC[C@H](O)C[C@@H]1CC[C@@H]1[C@@H]2CC[C@]2(C)C(=O)CC[C@@H]12` (plate: M 17-18), for which the “tryptophan fluorescence intensity z-score” value was inactive: 0.404.

Take `CO[C@H]1C[C@H](O[C@H]2CC[C@]3(C=O)[C@H]4CC[C@]5(C)[C@@H](C6=CC(=O)OC6)CC[C@]5(O)[C@@H]4CC[C@]3(O)C2)O[C@H](C)[C@H]1O` (plate: M 15-16): the “tryptophan fluorescence intensity z-score” value is inactive: 0.544.

As for `CC1(C)C2C[C@@H](O)[C@]3(C)C(CC[C@@]4(C)[C@H](c5ccoc5)OC(=O)[C@H]5O[C@]543)[C@@]2(C)[C@@H](O)C[C@H]1O` (some centres not stated) (plate: M 13-14), the “tryptophan fluorescence intensity z-score” value was inactive: -0.0564.

As to `C[C@@H]1O[C@@H](O[C@H]2C[C@@H](O)[C@]3(CO)[C@H]4[C@H](O)C[C@]5(C)[C@@H](C6=CC(=O)OC6)CC[C@]5(O)[C@@H]4CC[C@]3(O)C2)[C@H](O)[C@H](O)[C@H]1O` (plate: M 5-6), the “tryptophan fluorescence intensity z-score” value is inactive: 0.188.

Consider `COc1ccc2c3c([nH]c2c1)C(C)=NCC3` (plate: M 17-18), for which the “tryptophan fluorescence intensity z-score” value is inactive: 0.593.

For the molecule `COc1ccc(Cc2nccc3cc(OC)c(OC)cc23)cc1OC` (plate: M 3-4), the “tryptophan fluorescence intensity z-score” value was inactive: 0.32.

Turning to `CC(=O)OCC1=C(C(=O)O)N2C(=O)[C@@H](NC(=O)CCCC(N)C(=O)O)[C@H]2SC1` (some centres not stated) (plate: M 17-18), the “tryptophan fluorescence intensity z-score” value is inactive: -0.0824.

For the molecule `CCC1(CC)C(=O)C=CNC1=O` (plate: M 23-24), the “tryptophan fluorescence intensity z-score” value is inactive: -0.0597.

Take `O=C(NC(=O)c1c(F)cccc1F)Nc1cc(Cl)c(OC(F)(F)C(F)C(F)(F)F)cc1Cl` (configuration not stated) (plate: M 23-24): the “tryptophan fluorescence intensity z-score” value was inactive: 0.446.

Take `COc1cc2c(cc1OC)[C@@]13CCN4CC5=CCO[C@H]6CC(=O)N2[C@H]1[C@H]6[C@H]5C[C@H]43` (plate: M 5-6): the “tryptophan fluorescence intensity z-score” value is inactive: -0.0263.

`C=C(C)[C@H]1Cc2c(ccc3c2O[C@@H]2COc4cc(OC)c(OC)cc4[C@@H]2C3=O)O1` (plate: M 15-16): the “tryptophan fluorescence intensity z-score” value is inactive: 0.00942.

For the molecule `COC(=O)C1=CCCN(C)C1` (plate: M 5-6), the “tryptophan fluorescence intensity z-score” value was inactive: 0.0611.

`CC(=O)O[C@H]1C[C@H](O[C@H]2[C@@H](O)C[C@H](O[C@H]3[C@@H](O)C[C@H](O[C@H]4CC[C@@]5(C)[C@H](CC[C@@H]6[C@@H]5C[C@@H](O)[C@]5(C)[C@@H](C7=CC(=O)OC7)CC[C@]65O)C4)O[C@@H]3C)O[C@@H]2C)O[C@H](C)[C@H]1O[C@@H]1O[C@H](CO)[C@@H](O)[C@H](O)[C@H]1O` (plate: M 13-14): the “tryptophan fluorescence intensity z-score” value is inactive: 0.316.

Turning to `COc1ccc(CCN2CCC(Nc3nc4ccccc4n3Cc3ccc(F)cc3)CC2)cc1` (plate: M 11-12), the “tryptophan fluorescence intensity z-score” value was inactive: -0.26.

As to `O=C1C=C2C(=CCOC2O)O1` (configuration not stated) (plate: M 19-20), the “tryptophan fluorescence intensity z-score” value was inactive: 0.247.

`CC1=C2[C@H]3OC(=O)[C@@H](C)[C@@H]3CC[C@@]2(C)C=CC1=O` (plate: M 17-18): the “tryptophan fluorescence intensity z-score” value is inactive: 0.239.

With `CCC(N)C(O)c1ccc(O)c(O)c1` (configuration not stated) (plate: M 9-10), the “tryptophan fluorescence intensity z-score” value is inactive: 0.658.

As for `Oc1cc(Cl)ccc1Oc1ccc(Cl)cc1Cl` (plate: M 11-12), the “tryptophan fluorescence intensity z-score” value is inactive: -0.353.

Regarding `O=C1CCCN1CC#CCN1CCCC1` (plate: M 21-22), the “tryptophan fluorescence intensity z-score” value was inactive: 0.321.

In the case of `COC(=O)C(c1ccccc1)C1CCCCN1` (configuration not stated) (plate: M 11-12), the “tryptophan fluorescence intensity z-score” value is inactive: 0.294.

With `C[C@H]1C(=O)O[C@@H]2CCN3CC=C(COC(=O)[C@](C)(O)[C@]1(C)O)[C@H]23` (plate: M 19-20), the “tryptophan fluorescence intensity z-score” value is inactive: 0.683.

As to `CC(C)=CCCC1(C)C=Cc2c(O)c3c(c(CC=C(C)C)c2O1)OC12C(=CC4CC1C(C)(C)OC2(C/C=C(/C)C(=O)O)C4O)C3=O` (configuration not stated) (plate: M 15-16), the “tryptophan fluorescence intensity z-score” value is inactive: 0.0763.

In the case of `COC[C@]12CN(C=O)[C@@H]3[C@@H]4[C@H](OC)[C@H]1[C@@]3([C@@H](OC)C[C@H]2O)[C@@H]1C[C@@]2(O)[C@H](OC(=O)c3ccccc3)[C@@H]1[C@]4(OC(C)=O)[C@@H](O)[C@@H]2OC` (plate: M 13-14), the “tryptophan fluorescence intensity z-score” value is inactive: 0.342.

As for `O=C(O)COc1cc(Cl)c(Cl)cc1Cl` (plate: M 23-24), the “tryptophan fluorescence intensity z-score” value was inactive: 0.0654.

For the molecule `CO[C@]12C[C@@H](COC(=O)c3cncc(Br)c3)CN(C)[C@@H]1Cc1cn(C)c3cccc2c13` (plate: M 7-8), the “tryptophan fluorescence intensity z-score” value is inactive: -0.2.

As to `COc1cc2c(cc1OC)[C@@H]1C(=O)c3ccc4oc(C(C)C)cc4c3O[C@@H]1CO2` (plate: M 15-16), the “tryptophan fluorescence intensity z-score” value is inactive: 0.0259.

For the molecule `O=C(O)CCC1NCC2CC1CN1CCCCC21` (configuration not stated) (plate: M 19-20), the “tryptophan fluorescence intensity z-score” value is inactive: 0.072.

As for `C[N+]12CCC(CC1)C(OC(=O)C(O)(c1ccccc1)c1ccccc1)C2` (configuration not stated) (plate: M 1-2), the “tryptophan fluorescence intensity z-score” value was inactive: -0.11.

In the case of `O=C1CCC[C@@H]2[C@H]3C[C@@H](CN12)[C@@H]1CCCCN1C3.[O-][Cl+3]([O-])([O-])O` (plate: M 19-20), the “tryptophan fluorescence intensity z-score” value was inactive: 0.289.

Take `CC(CC(C(N)=O)(c1ccccc1)c1ccccc1)N(C)C` (configuration not stated) (plate: M 11-12): the “tryptophan fluorescence intensity z-score” value was inactive: 0.412.

In the case of `COc1cc2c(cc1-c1cc3cc4ccoc4cc3oc1=O)OCO2` (plate: M 15-16), the “tryptophan fluorescence intensity z-score” value is inactive: 0.965.

Take `O=c1ccc2cc(O[C@@H]3OC(CO)[C@@H](O)[C@@H](O)C3O)c(O)cc2o1` (some centres not stated) (plate: M 21-22): the “tryptophan fluorescence intensity z-score” value was inactive: 0.0448.

As to `CN(C)C(=S)SSC(=S)N(C)C` (plate: M 9-10), the “tryptophan fluorescence intensity z-score” value was inactive: -1.48.

Source of the values: the supplement of paper PMC9578143, “Small-Molecule Ebselen Binds to YTHDF Proteins Interfering with the Recognition of N^6-Methyladenosine-Modified RNAs” (ACS Pharmacology & Translational Science, 2022).
